No constants are given. Whether binding was seen depends on the method and setting. Binding can be weak; no strength is given.
How the values were obtained:
[1] = target: cynomolgus B7-H3 (#90806-C08H, Sino) (cynomolgus monkey); assay: ELISA on coated CynoMonkeyB7H3, OD450nm
[2] = target: cynomolgus B7-H3 (#90806-C08H, Sino) (cynomolgus monkey); assay: ELISA on coated cynomolgusMonkey B7H3, OD450nm

Row | Binder | binding [1] | binding [2]
1 | CD276-033E03 (antibody, V domains shown) VH: QVQLVESGGGLVQSGGSLRLSCAASGFTFSSYAMSWVRQAPGKGLEWVSVISGSGGSRYYADSVKGRFTISRDNSKNTLYLQMNSLRAEDTAVYYCASHTIPGAWDVWGQGTLVTVSS VL: QSALTQPASVSGSPGQSITISCTGTTRDVGGYNYVSWYQQHPGKAPKLMIYDVNNRPSGVSYRFSGSKSGNTASLTISGLQAEDEADYYCSSYTTSSRRVFGTGTKVTVL | binds | 
2 | CD276-039C05 (antibody, V domains shown, Converted from scFv to IgG form; Parent of the _LS_ light-chain variants) VH: QVQLVESGAEVKKPGSSVKVSCKASGGTFSSYAISWVRQAPGQGLEWMGRIIPILGIANYAQKFQGRVTITADKSTSTAYMELSSLRSEDTAVYYCANGGDSSSWYTFDYWGQGTLITVSS VL: DIQMTQSPSTLSASVGDKLTLTCRASQSISRWLAWYQQKPGKAPKLLIYKASYLQTGVPSRFSGSGTGTEFTLTISSLQPDDFATYYCQQYNTFPLTFAGGTKVEIK |  | binds
3 | CD276-039C05_LS_002B07 (antibody, V domains shown) VH: QVQLVESGAEVKKPGSSVKVSCKASGGTFSSYAISWVRQAPGQGLEWMGRIIPILGIANYAQKFQGRVTITADKSTSTAYMELSSLRSEDTAVYYCANGGDSSSWYTFDYWGQGTLITVSS VL: DIQMTQSPSSLSASVGDRVTITCRASQGISSYLAWYQQKPGKAPKLLIYAASTLQSGVPSRFSGSGSGTDFTLTISSLQPEDFATYYCQQYYSFPLTFGGGTKVEIK |  | binds

— patent US20220348663A1 (Y BIOLOGICS, published 2022)
